Paper PMC8888479

Target: T1, p190RhoGAP, endogenous in neonatal rat cardiomyocytes (rat (endogenous in NRCM)) (UniProt P81128)
T1 sequence: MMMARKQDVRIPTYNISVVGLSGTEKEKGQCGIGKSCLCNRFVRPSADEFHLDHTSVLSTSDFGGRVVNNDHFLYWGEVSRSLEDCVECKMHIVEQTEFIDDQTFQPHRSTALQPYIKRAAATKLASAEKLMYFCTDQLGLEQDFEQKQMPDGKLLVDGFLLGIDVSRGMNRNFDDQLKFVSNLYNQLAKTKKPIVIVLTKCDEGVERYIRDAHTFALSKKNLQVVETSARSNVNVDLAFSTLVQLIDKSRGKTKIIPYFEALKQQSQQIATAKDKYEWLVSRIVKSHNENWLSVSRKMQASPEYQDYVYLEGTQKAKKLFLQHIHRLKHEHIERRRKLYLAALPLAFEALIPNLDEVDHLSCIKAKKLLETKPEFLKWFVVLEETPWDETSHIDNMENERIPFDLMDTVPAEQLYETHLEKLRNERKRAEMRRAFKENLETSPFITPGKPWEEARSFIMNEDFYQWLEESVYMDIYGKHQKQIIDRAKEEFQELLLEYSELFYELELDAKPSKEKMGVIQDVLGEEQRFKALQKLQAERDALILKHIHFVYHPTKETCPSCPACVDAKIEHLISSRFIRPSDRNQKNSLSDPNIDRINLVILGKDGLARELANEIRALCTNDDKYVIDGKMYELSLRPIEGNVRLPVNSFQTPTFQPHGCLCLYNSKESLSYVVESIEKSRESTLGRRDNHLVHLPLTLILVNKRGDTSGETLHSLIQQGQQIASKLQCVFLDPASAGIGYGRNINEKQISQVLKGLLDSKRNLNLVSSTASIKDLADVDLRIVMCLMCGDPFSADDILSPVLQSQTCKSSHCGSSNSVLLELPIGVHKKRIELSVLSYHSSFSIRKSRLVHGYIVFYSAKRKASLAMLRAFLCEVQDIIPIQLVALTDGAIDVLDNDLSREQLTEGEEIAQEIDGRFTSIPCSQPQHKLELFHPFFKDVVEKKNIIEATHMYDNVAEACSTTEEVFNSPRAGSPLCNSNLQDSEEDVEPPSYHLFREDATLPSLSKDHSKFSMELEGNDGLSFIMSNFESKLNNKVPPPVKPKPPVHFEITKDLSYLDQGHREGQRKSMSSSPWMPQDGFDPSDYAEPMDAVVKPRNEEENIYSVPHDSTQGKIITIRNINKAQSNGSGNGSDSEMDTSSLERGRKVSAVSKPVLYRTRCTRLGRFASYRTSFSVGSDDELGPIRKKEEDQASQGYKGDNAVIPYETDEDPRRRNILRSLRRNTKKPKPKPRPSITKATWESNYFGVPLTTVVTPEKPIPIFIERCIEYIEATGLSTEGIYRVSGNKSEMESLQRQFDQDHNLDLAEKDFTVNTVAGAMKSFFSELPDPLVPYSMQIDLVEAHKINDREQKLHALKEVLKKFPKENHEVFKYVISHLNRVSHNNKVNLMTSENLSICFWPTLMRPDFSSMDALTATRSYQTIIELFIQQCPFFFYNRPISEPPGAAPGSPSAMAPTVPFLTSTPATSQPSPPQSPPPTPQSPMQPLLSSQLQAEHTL
Test: proximity ligation; non-transduced NRCM on coverslips, without or with carbachol for 5 min, fixed and permeabilised; mouse anti-p190RhoGAP and rabbit anti-RGS3 primary antibodies; confocal microscopy; carbachol increased the signal

## RGS3L, endogenous in neonatal rat cardiomyocytes
  binding: binds

No constants are given. Whether binding was seen depends on the method and setting. In cells and extracts the contact can be indirect. Binding can be weak; no strength is given.
